The text below walks through data of patent US20240166765A1, “INFLAMMATORY DISEASE TREATMENT USING ANTI-TISSUE FACTOR ANTIBODIES” (Iconic Therapeutics LLC, priority 2020, published 2024).

In the series the test system is chimeric human-rat TF constructs expressed on HEK293 cells. In words: Epitope binning, chimeric TF construct mapping (live cell staining assay). In kind it is binding. To be noted: assignment based on unbound chimeric constructs. The method, then: To establish binding of the anti-human TF antibodies to the various TF constructs, HEK293 cells were transfected with a DNA plasmid that co-expresses the TF construct and a green fluorescent protein marker. For a subset of the antibodies, an antibody titration (a 12-point 1:3 dilution series starting at 250 nM) was evaluated on select TF constructs (See international PCT application PCT/US2019/012427 and U.S. utility application Ser. No. 16/959,652, incorporated herein by reference in their entirety). […] Two days after transfection, cells were collected from the tissue culture plate, stained with 15 μg/ml of the indicated anti-TF antibody, washed, stained with anti-human IgG-Fc Alexa Fluor 647 polyclonal antibody, washed, and stained with the viability dye 4′,6-Diamidino-2-Phenylindole, Dihydrochloride. Upon acquisition of 80,000 live events on a flow cytometer, live cells marked with the fluorescent marker were analyzed for the degree of staining by the anti-TF antibody. […] As used herein, the term “live cell staining assay” refers to the antibody binding assay used in this example.
When “Percentage antibody binding to TF construct relative to hTF” in Tables 51 and 52 was less than 50%, the antibody was considered a non-binder (0) in Tables 53 and 54.

For the substance “5G9: previously described TF-specific antibody”, the “Epitope Bin” value worked out at 4. The result for TF-011 reads 1.
